These are yes or no findings as the source states them, for the method shown. In cells and extracts the contact can be indirect. Some entries that bind do so weakly or less than the wild type. For some assays here: Tags and fused reporters may be left off the sequences shown.

Protein sequences, listed by entry. Tags and fused reporters are not part of them.
UniProt Q13283: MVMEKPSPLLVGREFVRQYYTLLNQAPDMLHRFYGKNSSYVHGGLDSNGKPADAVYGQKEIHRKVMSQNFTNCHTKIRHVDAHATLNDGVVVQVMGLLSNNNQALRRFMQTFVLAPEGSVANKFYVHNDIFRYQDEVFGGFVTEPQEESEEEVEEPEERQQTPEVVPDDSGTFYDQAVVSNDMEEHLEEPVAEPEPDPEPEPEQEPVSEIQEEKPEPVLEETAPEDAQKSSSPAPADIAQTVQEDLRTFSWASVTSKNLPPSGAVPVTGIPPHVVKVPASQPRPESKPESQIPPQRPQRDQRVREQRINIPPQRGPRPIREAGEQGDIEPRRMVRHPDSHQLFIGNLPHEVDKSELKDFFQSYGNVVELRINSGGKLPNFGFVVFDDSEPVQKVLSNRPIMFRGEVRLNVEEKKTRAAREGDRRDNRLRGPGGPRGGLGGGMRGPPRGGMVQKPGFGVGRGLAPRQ
UniProt Q04637: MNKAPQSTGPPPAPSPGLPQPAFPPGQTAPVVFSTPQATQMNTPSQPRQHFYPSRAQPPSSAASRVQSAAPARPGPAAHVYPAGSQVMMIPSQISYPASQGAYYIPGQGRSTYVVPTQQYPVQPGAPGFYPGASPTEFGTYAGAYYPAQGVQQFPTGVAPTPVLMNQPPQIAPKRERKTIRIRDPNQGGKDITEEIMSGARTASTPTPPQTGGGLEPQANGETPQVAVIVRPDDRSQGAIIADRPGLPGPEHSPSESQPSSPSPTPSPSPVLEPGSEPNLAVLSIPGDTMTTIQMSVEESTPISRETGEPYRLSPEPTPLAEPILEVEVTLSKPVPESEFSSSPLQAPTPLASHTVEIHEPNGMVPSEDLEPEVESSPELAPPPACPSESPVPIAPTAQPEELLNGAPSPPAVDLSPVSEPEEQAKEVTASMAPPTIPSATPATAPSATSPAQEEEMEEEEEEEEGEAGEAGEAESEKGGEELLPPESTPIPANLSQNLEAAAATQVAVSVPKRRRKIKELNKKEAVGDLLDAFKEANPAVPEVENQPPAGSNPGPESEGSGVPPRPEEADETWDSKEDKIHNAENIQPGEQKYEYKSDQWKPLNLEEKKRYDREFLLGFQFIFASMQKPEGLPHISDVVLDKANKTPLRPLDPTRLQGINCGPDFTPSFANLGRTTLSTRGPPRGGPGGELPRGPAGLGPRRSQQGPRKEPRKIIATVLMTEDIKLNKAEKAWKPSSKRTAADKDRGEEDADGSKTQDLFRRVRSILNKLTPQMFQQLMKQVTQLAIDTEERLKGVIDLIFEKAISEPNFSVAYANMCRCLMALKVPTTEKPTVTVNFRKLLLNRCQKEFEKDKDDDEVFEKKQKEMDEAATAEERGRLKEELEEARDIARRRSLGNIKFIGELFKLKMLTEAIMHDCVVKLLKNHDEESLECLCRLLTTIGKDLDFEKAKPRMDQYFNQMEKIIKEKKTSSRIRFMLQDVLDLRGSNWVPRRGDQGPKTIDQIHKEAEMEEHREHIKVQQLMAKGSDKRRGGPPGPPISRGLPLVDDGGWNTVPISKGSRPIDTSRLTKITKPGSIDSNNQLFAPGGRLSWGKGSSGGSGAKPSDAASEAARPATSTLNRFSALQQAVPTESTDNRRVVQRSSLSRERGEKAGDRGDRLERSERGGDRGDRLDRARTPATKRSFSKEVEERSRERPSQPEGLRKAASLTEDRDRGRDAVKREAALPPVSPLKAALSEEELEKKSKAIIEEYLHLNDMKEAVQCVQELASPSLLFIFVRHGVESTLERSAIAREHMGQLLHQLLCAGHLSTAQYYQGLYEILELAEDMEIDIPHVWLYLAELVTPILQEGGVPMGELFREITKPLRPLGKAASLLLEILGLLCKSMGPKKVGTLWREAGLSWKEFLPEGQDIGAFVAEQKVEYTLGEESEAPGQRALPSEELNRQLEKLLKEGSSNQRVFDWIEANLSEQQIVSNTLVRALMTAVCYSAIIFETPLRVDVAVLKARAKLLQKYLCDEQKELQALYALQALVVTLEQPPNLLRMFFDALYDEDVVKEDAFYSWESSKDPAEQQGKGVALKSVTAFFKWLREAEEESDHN
UniProt P11940: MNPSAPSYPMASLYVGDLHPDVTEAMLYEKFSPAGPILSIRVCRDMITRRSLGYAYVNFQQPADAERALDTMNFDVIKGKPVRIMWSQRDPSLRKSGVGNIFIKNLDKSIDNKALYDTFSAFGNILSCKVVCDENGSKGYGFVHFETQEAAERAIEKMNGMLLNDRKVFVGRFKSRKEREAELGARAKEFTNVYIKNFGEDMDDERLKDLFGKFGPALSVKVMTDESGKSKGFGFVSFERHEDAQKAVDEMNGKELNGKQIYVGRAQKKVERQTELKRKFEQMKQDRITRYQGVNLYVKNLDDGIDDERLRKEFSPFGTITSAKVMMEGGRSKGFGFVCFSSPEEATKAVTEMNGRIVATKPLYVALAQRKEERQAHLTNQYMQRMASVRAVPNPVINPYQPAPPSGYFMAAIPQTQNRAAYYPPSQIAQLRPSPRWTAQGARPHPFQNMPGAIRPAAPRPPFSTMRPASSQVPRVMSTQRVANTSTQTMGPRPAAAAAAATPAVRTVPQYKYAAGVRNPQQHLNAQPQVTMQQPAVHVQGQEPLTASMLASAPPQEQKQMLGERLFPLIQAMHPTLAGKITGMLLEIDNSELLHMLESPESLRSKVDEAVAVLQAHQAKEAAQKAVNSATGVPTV

For test [1], the target named is HA-G3BP1 (HA-tagged human Ras GTPase-activating protein-binding protein 1) (human) (UniProt Q13283). As to the kind of experiment: co-IP; re-IP: lysates of UMUC3 cells stably expressing both SLU7-Flag and HA-G3BP1; first IP with anti-Flag antibody, 15 µg/mL Flag peptide for 2 h at 4 °C, then re-IP with anti-HA antibody; western blot. For orientation: In western blotting, separated proteins are transferred to a membrane and probed.

The target is the same in test [2]. As to the kind of experiment: co-IP; lysates (RIPA buffer) of cells stably expressing SLU7-Flag or HA-G3BP1; anti-Flag or anti-HA antibody overnight at 4 °C, protein A/G magnetic beads 2 h at 4 °C, eight washes with RIPA buffer; western blot.
Test [3] has as its target T1, SLU7-Flag (Flag-tagged human splicing factor synergistic lethal with U5 snRNA 7) (human) (UniProt O95391).
T1 sequence: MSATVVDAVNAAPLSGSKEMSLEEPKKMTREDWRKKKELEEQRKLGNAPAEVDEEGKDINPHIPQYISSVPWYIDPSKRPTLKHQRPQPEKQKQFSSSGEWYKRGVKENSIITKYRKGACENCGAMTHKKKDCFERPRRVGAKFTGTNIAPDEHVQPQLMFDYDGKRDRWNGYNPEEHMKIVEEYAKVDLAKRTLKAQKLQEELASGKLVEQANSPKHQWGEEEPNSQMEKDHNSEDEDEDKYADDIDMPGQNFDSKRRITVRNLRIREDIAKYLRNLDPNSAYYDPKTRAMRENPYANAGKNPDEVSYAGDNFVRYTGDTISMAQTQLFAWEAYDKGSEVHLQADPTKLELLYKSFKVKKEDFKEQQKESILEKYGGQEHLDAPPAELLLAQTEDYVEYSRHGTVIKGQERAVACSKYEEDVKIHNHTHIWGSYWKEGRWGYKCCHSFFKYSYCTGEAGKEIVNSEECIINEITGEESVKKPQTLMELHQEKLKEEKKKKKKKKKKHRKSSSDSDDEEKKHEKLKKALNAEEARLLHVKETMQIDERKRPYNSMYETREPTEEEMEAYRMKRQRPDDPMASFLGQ
Put plainly: co-IP; re-IP: lysates of UMUC3 cells stably expressing both SLU7-Flag and HA-G3BP1; first IP with anti-Flag antibody, 15 µg/mL Flag peptide for 2 h at 4 °C, then re-IP with anti-HA antibody; western blot.

The target in test [4] is T1, SLU7-Flag (Flag-tagged human splicing factor synergistic lethal with U5 snRNA 7) (human). As to the kind of experiment: co-IP; lysates (RIPA buffer) of cells stably expressing SLU7-Flag or HA-G3BP1; anti-Flag or anti-HA antibody overnight at 4 °C, protein A/G magnetic beads 2 h at 4 °C, eight washes with RIPA buffer; western blot.
The target in test [5] is endogenous G3BP1 (human (endogenous in UMUC3 and T24)) (UniProt Q13283). Put plainly: proximity ligation; Duolink in situ PLA on fixed, permeabilised UMUC3 and T24 cells with antibodies against SLU7 and G3BP1 (endogenous proteins).

For “eukaryotic translation initiation factor 4 gamma 1 (eIF4G1), endogenous (from UniProt Q04637 1-1599)”, the binding result in test [1] and in test [2] was “binds” each time.
On to “poly(A)-binding protein cytoplasmic 1 (PABPC1), endogenous (from UniProt P11940 1-636)”, for which the binding entry in test [1] and in test [2] was “binds” throughout.
In the case of “HA-G3BP1 (HA-tagged human Ras GTPase-activating protein-binding protein 1) (from UniProt Q13283 1-466)”, in test [3], the binding result is “binds”.
Take “endogenous G3BP1 (from UniProt Q13283 1-466)”: in test [4], the binding result is on record as “binds”.

B1: endogenous SLU7 (protein, UniProt O95391 1-586)
chain: MSATVVDAVNAAPLSGSKEMSLEEPKKMTREDWRKKKELEEQRKLGNAPAEVDEEGKDINPHIPQYISSVPWYIDPSKRPTLKHQRPQPEKQKQFSSSGEWYKRGVKENSIITKYRKGACENCGAMTHKKKDCFERPRRVGAKFTGTNIAPDEHVQPQLMFDYDGKRDRWNGYNPEEHMKIVEEYAKVDLAKRTLKAQKLQEELASGKLVEQANSPKHQWGEEEPNSQMEKDHNSEDEDEDKYADDIDMPGQNFDSKRRITVRNLRIREDIAKYLRNLDPNSAYYDPKTRAMRENPYANAGKNPDEVSYAGDNFVRYTGDTISMAQTQLFAWEAYDKGSEVHLQADPTKLELLYKSFKVKKEDFKEQQKESILEKYGGQEHLDAPPAELLLAQTEDYVEYSRHGTVIKGQERAVACSKYEEDVKIHNHTHIWGSYWKEGRWGYKCCHSFFKYSYCTGEAGKEIVNSEECIINEITGEESVKKPQTLMELHQEKLKEEKKKKKKKKKKHRKSSSDSDDEEKKHEKLKKALNAEEARLLHVKETMQIDERKRPYNSMYETREPTEEEMEAYRMKRQRPDDPMASFLGQ
Turning to B1, the binding entry in test [5] and in test [2] was “binds” in each case.

For the origin of these results see paper PMC10870071.
